This is an account of results in patent publication US10299714B2, “Blood collection devices containing blood stabilization agent including variegin or analog thereof and/or a polysulfated disaccharide” (Becton, Dickinson and Company, priority 2010, dated 2019).

The test system of this data set is platelets. The experiment in a line: Platelet aggregation measurements using low dose ADP agonist, inventive tube versus hirudin tube. In kind it is cell-based, human. The following applies: five samples. The procedure:
Measurements: Testing of platelet function (which in this experiment, was aggregation activity) was done using the Multiplate instrument (Verum Diagnostics, Munich, Germany), which uses whole blood as the sample and an increase in impedance as the measurement of platelet aggregation. The instrument was used per manufacturer's instructions. Briefly, 300 microliters of isotonic saline was warmed in each reaction cuvette, and to this was added 300 microliters of the whole blood sample. In reactions where aspirin or other platelet antagonists (inhibitors) were added in vitro, 20 microliters (μL) of a stock solution of aspirin was spiked into the samples. The aggregation reaction was initiated by addition of a platelet agonist, in this case collagen, at 3.2 μg/ml and volume (20 μl) per manufacturer's instructions. Upon addition of the collagen, the impedance measurements began automatically, and were continued for 6 minutes, representing the full course along the x-axis in the graphs shown in FIG. 2. The graphs show platelet aggregation, as reported by impedance, as an arbitrary unitless measurement on the y-axis, over the 6-minute run time on the x-axis. Traces shown are raw platelet aggregation data delivered from the instrument. […]

For Hirudin, the “samples falling below the functional threshold of 27 AUC” value (1 h) was “one of the five” and the “samples falling below the functional threshold of 27 AUC” value (24 h) is given as “three of the five”.
